Results published in publication PMC6753076.
Substitutions are numbered along the chain they refer to. Numbers in names are those of the source. These are yes or no findings as the source states them, for the method shown. In cells and extracts the contact can be indirect. Some entries that bind do so weakly or less than the wild type. For part of these data: Tags and fused reporters may be left off the sequences shown.

Chains of the proteins cited; added tags and fusions are not shown.
UniProt P49429: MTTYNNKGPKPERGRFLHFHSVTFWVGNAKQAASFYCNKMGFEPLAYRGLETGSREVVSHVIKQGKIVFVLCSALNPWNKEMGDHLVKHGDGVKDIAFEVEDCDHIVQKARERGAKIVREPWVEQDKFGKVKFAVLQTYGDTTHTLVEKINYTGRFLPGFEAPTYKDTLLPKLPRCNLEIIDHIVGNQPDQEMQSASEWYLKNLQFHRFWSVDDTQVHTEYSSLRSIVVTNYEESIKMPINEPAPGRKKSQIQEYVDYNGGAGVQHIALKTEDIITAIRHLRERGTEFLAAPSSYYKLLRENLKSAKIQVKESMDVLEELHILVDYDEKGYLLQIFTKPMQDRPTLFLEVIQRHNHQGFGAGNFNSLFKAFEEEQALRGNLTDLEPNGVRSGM

What was measured:
[1] = biological target: T1, Flag-PELI1 (CMV-Flag-Peli1), wild type (human) (UniProt Q96FA3); experiment: co-IP; HEK293T transfected with the indicated plasmids; immunoprecipitation with an anti-Flag antibody
T1 sequence: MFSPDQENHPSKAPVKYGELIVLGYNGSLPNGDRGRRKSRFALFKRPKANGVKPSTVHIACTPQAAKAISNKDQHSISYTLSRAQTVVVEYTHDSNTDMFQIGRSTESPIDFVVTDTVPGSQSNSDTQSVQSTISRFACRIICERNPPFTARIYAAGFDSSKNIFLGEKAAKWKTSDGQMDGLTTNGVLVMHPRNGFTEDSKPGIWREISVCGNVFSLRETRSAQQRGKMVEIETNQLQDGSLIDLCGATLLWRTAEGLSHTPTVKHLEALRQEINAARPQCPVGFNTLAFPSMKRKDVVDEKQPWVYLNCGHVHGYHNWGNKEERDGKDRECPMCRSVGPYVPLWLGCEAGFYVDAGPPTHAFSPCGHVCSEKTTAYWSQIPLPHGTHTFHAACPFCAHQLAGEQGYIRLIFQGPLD

[2] = biological target: HPD, endogenous mouse (mouse (endogenous in primary hepatocytes)) (UniProt P49429); experiment: co-IP; WT or Ttc36-/- mouse primary hepatocytes, MG-132 (10 μM) 12 h; immunoprecipitation with an anti-HPD antibody

B1: His/V5-HPD T3A (protein, UniProt P32754-1 1-393)
chain: MTAYSDKGAKPERGRFLHFHSVTFWVGNAKQATSFYCSKMGFEPLAYRGLETGSREVVSHVIKQGKIVFVLSSALNPWNKEMGDHLVKHGDGVKDIAFEVEDCDYIVQKARERGAKIMREPWVEQDKFGKVKFAVLQTYGDTTHTLVEKMNYIGQFLPGYEAPAFMDPLLPKLPKCSLEMIDHIVGNQPDQEMVSASEWYLKNLQFHRFWSVDDTQVHTEYSSLRSIVVANYEESIKMPINEPAPGKKKSQIQEYVDYNGGAGVQHIALKTEDIITAIRHLRERGLEFLSVPSTYYKQLREKLKTAKIKVKENIDALEELKILVDYDEKGYLLQIFTKPVQDRPTLFLEVIQRHNHQGFGAGNFNSLFKAFEEEQNLRGNLTNMETNGVVPGM
For B1, the binding [1] was “binds”.

B2: His/V5-HPD T23A (protein, UniProt P32754-1 1-393)
chain: B1 chain with A3T, T23A
With B2 the binding [1] was “binds”.

B3: His/V5-HPD T138A (protein, UniProt P32754-1 1-393)
chain: B1 chain with A3T, T138A
For B3, the binding [1] was “binds”.

B4: His/V5-HPD T219A (protein, UniProt P32754-1 1-393)
chain: B1 chain with A3T, T219A
B4 was tested, and the binding [1] was “binds”.

B5: His/V5-HPD T271A (protein, UniProt P32754-1 1-393)
chain: B1 chain with A3T, T271A
For B5, the binding [1] was “binds”.

B6: His/V5-HPD T337A (protein, UniProt P32754-1 1-393)
chain: B1 chain with A3T, T337A
With B6 the binding [1] was “binds”.

B7: PELI1, endogenous mouse (protein, UniProt Q8C669 1-418)
chain: T1 sequence with N146S
With B7 the binding [2] was “binds”.

B8: His/V5-HPD T2A (protein, UniProt P32754-1 1-393)
chain: B1 chain with T2A, A3T
With B8 the binding [1] was “binds”.

B9: His-HPD T382A (protein, UniProt P32754-1 1-393)
chain: B1 chain with A3T, T382A
With B9 the binding [1] was “no binding”.
